Results are given in words; binding and its absence hold for the method and conditions named. Binding seen in cells or lysates may run through a third protein. Some binding calls cover weakened binding; strength is not graded here.
Target: Inf2 (mouse (endogenous in murine cardiac tissue)) (UniProt Q0GNC1)
Assay: co-IP; IP of endogenous Inf2 (anti-Inf2, Bethyl A303-428A) from total mouse heart tissue lysate without membrane enrichment; western blot for Cacna1c

By UniProt entry, the sequences of proteins in these tests, tags left out.
UniProt Q0GNC1: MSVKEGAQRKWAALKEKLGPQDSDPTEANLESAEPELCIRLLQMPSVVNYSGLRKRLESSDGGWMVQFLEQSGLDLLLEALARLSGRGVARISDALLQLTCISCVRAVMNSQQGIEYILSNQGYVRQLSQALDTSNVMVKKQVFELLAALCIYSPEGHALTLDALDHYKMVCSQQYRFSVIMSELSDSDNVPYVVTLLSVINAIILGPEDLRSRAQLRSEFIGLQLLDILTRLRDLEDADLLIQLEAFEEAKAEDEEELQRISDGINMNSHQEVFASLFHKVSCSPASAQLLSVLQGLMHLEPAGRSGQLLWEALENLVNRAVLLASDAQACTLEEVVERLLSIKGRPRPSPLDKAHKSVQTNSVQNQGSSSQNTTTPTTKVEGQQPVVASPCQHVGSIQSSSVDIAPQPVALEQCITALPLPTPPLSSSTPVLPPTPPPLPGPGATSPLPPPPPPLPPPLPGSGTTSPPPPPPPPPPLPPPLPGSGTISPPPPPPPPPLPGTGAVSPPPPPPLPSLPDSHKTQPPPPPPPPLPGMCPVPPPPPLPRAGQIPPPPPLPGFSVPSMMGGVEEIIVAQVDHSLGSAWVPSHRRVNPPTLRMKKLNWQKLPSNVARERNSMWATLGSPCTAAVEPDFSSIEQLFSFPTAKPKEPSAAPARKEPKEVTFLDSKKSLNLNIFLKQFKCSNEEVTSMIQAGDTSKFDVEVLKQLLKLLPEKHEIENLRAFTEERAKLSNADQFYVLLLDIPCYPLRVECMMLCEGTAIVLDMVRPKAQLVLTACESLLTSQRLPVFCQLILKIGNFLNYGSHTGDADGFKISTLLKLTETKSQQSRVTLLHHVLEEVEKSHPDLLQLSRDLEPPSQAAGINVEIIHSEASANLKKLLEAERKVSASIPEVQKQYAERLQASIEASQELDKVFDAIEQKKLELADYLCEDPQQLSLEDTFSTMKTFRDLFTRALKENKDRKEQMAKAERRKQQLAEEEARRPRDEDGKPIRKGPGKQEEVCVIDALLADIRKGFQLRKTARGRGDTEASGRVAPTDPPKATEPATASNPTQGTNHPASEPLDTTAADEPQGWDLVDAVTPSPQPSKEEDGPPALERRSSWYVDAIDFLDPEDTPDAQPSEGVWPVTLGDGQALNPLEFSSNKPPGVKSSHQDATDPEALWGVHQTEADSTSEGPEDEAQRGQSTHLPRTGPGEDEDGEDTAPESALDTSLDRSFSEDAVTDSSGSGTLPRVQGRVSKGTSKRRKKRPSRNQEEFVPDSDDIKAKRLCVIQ
UniProt Q01815: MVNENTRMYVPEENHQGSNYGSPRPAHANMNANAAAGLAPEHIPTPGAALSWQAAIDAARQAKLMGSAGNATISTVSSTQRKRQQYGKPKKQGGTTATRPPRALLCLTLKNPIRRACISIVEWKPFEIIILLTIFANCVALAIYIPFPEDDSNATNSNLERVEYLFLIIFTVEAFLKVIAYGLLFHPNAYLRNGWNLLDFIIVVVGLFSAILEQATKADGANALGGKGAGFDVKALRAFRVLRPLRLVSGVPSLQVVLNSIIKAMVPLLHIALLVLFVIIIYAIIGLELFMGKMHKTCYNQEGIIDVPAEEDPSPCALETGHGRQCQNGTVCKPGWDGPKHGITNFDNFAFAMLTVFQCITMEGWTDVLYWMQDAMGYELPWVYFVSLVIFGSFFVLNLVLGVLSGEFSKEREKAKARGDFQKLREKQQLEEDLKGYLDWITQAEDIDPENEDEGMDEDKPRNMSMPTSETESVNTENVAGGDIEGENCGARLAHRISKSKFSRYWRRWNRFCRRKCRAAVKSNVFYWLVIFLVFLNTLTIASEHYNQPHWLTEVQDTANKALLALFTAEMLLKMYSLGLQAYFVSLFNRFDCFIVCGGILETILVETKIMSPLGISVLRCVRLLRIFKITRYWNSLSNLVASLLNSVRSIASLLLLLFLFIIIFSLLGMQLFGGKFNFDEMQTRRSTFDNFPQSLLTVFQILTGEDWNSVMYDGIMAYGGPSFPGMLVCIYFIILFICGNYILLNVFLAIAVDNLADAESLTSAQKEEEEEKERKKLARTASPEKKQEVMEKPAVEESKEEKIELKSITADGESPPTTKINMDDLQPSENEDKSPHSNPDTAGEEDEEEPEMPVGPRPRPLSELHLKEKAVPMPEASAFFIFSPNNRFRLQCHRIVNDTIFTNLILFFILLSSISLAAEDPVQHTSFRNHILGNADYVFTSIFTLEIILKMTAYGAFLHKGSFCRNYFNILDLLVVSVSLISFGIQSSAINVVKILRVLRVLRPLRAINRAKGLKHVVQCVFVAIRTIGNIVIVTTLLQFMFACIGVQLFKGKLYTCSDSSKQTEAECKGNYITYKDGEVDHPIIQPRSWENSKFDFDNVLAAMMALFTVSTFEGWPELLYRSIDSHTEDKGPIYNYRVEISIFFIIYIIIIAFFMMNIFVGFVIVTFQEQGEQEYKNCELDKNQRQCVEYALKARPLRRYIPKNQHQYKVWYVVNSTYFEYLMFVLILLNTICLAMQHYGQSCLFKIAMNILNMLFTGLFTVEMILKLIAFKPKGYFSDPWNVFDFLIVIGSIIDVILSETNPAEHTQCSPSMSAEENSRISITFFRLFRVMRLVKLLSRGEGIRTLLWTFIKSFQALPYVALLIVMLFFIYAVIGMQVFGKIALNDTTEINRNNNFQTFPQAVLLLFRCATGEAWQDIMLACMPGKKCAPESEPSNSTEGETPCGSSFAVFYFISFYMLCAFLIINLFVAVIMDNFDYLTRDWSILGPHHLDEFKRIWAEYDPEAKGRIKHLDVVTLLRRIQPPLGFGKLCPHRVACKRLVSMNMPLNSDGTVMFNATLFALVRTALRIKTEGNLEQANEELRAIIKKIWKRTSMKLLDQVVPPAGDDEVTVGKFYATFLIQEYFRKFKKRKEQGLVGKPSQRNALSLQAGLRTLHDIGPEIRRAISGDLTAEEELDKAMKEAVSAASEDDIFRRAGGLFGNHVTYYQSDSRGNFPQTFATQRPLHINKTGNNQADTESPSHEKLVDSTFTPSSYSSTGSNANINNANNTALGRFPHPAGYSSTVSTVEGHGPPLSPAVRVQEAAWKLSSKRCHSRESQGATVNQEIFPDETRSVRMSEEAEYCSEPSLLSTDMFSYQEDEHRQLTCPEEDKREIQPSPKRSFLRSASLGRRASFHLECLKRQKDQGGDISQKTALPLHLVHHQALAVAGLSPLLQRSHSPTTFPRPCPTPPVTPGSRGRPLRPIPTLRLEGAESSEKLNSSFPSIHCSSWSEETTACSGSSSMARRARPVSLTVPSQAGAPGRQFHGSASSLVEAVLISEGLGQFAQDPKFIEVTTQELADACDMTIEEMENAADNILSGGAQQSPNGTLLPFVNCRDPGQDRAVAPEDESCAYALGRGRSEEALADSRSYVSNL

- binding: binds
Substance: Cacna1c (Cav1.2) (from UniProt Q01815 1-2139)

Reference: paper PMC11041666
